Data on 66 sequences can be found in PubChem BioAssay AID1347423 (Functional Genomics Laboratory (NCATS/FGL), 2020).

Out of some 52,000 sequences screened, about 210 (0.4%) were called active.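 How the source made its calls: active means gene whose silencing raises cell survival under the drug, median off-target-corrected z-score across its silencing RNAs 2 or more; inactive means the rest.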 The list shows a part of the results.

The nature of this test: Resistance to Poly (ADP-Ribose) Polymerase inhibitor: Gene Identification via Genome-wide siRNA Screen. To be noted: mouse BRCA2 R2336H ES cells, olaparib, CellTiter-Glo viability; stronger effect = higher value. The procedure, abridged:
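Mouse BRCA2 R2336H ES cells were reverse-transfected with siRNA (20 nM final), treated at 48 h with 500 nM olaparib, and read by CellTiter-Glo after 72 h. Scores: MAD-based z per siRNA, median per gene, seed off-target correction.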
(Cellular ATP, detected with luciferase, serves as a proxy for viable cell number.)
Regarding GGUUAUUACACUCUACAAATT against Ceacam11, the z-score is inactive: -0.313. As for GCUAACUUAGAUAUCCAGGTT against AW539457, the figure is inactive: -1.04; as for GGAAUAGAACGAAUUUCUGTT against Lsm11, inactive: -0.0293. As for GCCUAAGAACGAUGACACUTT against Surf2, the figure is inactive: 0.252.

Turning to GGGCUAGCAUCACAGUUUUTT against MGC67569, the z-score was inactive: -0.729. CGACAGUGUUAGCAUUAAATT against Pros1: the z-score was inactive: 0.187.

For GCCUUUCUACUUAUUACCATT against Map3k7, the z-score was inactive: -0.634.

As to GGUCUCCAUUUCUUUCUGCTT against C87860, the z-score was inactive: 0.953. As for GGUACCGGAAAGGAAGUGUTT against Grm1, the figure is inactive: -0.666; as for GCUCAUGGACCAACCUAUGTT against Olfr1180, inactive: -1.44; as for GGUUCUGGAAGGACAGGAATT against BC034054, inactive: -2.9.

In the case of GCGAAGACGGAAGCAUAUUTT against Noc4, the z-score was inactive: -2.07. For the sequence GGAUUUGAAGAAAGAUGGATT against Gdd1, the z-score is inactive: 0.171. Take GCUCAGCAUAUUUGUACAUTT against Thbd: the z-score was inactive: 0.979. As for “GGCUGCUUAAGUGUAUCAGTT against 5730599I05Rik”, the figure is inactive: 0.661; as for “GGACUAGAAUGUGACCUUGTT against 2210417J20Rik”, inactive: -1.24.

On to GGAAGAACAAAAAACCAUGTT against Sf3b2, for which the z-score is inactive: -3.2.

With GGAGAUCACAGAAAAGUAUTT against Pex19, the z-score was inactive: -0.897. For the sequence GUGACCUCAUCCAGAAAAUTT against V1ri8, the z-score is inactive: 2.04. Turning to GGAAAGUGAGGACAAAUAUTT against Cst8, the z-score is inactive: 0.838. On to GGCCCACCGAGAGAAACUATT against Cpsf1, for which the z-score is inactive: 0.154. As for “GCUUUUUAUCCGUGUCGAUTT against 4930474N05”, the figure is inactive: 0.184. As for GGAUUUCUGGGACUCCACUTT against Tnfsf10, the figure is inactive: 0.08.

Take “GGAAGAGAGCGAUUAAAUUTT against 1500011J06Rik”: the z-score was inactive: -0.0424. As for GGUAUGGGAGAUGACUCUATT against C78212, the figure is inactive: -2.46; as for UUUGAACAGUCACUCCUCGTT against BQ176089, inactive: -0.239; as for GGUCUCCCUCUUCCAUAACTT against Klk10, inactive: -0.526. As for GGCGGAAAAGUGUGCAAUATT against Cd244, the figure is inactive: 0.488.

With GGACAACUCCAAUUCCCUATT against Rasgrp2, the z-score was inactive: 1.55. With “CCUACAGCAACCAUAAGGATT against A930027K05Rik”, the z-score is inactive: 1.26. As for “GCGUAUUGAUAUAAGCUCUTT against D14Ertd171e”, the figure is inactive: -0.213; as for GGAAAUGAGCCAGGAUGGUTT against Cdca4, inactive: 0.36; as for “GGUUCUCCAUACUUAUGCCTT against G630042G04”, inactive: 0.393. In the case of GCCAAGAUGUGGCAACCCATT against Mmp2, the z-score is inactive: 0.64. As for GGAGUUCCUCACACUAAUCTT against Gch1, the figure is inactive: 1.64; as for “GCAAGCUAUUCCACCAUUGTT against 9830002I17Rik”, inactive: -0.923. Take GGGUCCCUAAGCAUGUUCCTT against Slfn10: the z-score is inactive: 1.48. Regarding GCUGAACAAACCCACCGGUTT against Ppox, the z-score is inactive: 0.81.

For the sequence GCUGCUACUCUGGAGAAGCTT against Fcrlm2, the z-score is inactive: 0.566. As for GUCCUUCUCAUCAUGGGACTT against Sec61g, the figure is inactive: -0.199. With GGAAUCUUCCACAAGCUGUTT against Papolb, the z-score was inactive: 1.06. As for GGAUUGUUGAAAGAAACAUTT against Mrpl32, the figure is inactive: -0.639. As to CCAUUCUCUUUACCUCAAUTT against Rdh12, the z-score is inactive: -0.0664. In the case of GCCCUCUUAGGAGUGAUUATT against Zfp219, the z-score was inactive: 2.02. On to CCAAGGGUCACCUAUUUUUTT against Kcna5, for which the z-score was inactive: -1.84. With CAAGACUAUUUGGCCUGAGTT against Gbx1, the z-score was inactive: -3.07. Consider GGCUGGAGAAAAUGAUGAATT against Rwdd1, for which the z-score is inactive: 0.719. As for GGAAGAGAUGAAGAAAAUGTT against Cetn1, the figure is inactive: 0.507; as for GGUGUGCCCUAUGAAUCGATT against Itpr2, inactive: 2.26; as for GGACUUUCUUCCAUCAAAUTT against Ick, inactive: 0.573. As for GGACUCUCUGAAUAACAACTT against Mapk8ip2, the figure is inactive: -1.29.

In the case of GGGAACCAGAAUUCACAAATT against Trp53inp2, the z-score was inactive: 0.597.

Turning to “GCUAGAGGUGACUGAUGUCTT against 2610036D13Rik”, the z-score was inactive: -1.98. As for GGACAAAAGAUUCUUCAUCTT against Mtap1b, the figure is inactive: 0.839. Turning to GGAAUCUGCACCAUUUUCCTT against Lrrc28, the z-score is inactive: 0.791. Consider GGACAACUAUGGGACAGAGTT against LOC626846, for which the z-score was inactive: -1.3. Take GGCAAAAGGGACAAAAACUTT against Gadd45a: the z-score was inactive: 1.19.

Consider CCUAUAGCUUGGUAACAGGTT against Gnb1l, for which the z-score was inactive: 0.328. Take “GGGAUAUCUCGCUUCUAUATT against 2610003J06Rik”: the z-score is inactive: 0.108. As for GCGAGACCGUUCAAUAAAGTT against Gnefr, the figure is inactive: 0.232; as for GGUUCUUUCCUUGUUUUACTT against Olfr448, inactive: 0.113. As for “GGACUCCUAAGUGUAACAGTT against 9130221H12Rik”, the figure is inactive: -1.04. As for GGUGCUGAACUACAUGUACTT against Zfp161, the figure is inactive: 0.846. As to “GCUGUGUUAGAAAGCAGGCTT against 4931406H21Rik”, the z-score was inactive: 0.698. GGCUAACCGAAGCCAUCCUTT against Wbp5: the z-score is inactive: -0.825. Turning to “GGCAGUCUGUCAGAUCAAUTT against 4932411G14Rik”, the z-score was inactive: -1.08.
